Results deposited as PubChem BioAssay AID504786 (Drosophila RNAi Screening Center, 2011)

Assay: 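Knock-downs reducing HIF reporter induction by the iron chelator DFO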 (primary screen)
Cells: Drosophila S2 cells with a stable HIF luciferase reporter
Reagents: long dsRNA against Drosophila genes, about 0.2 µg dsRNA per well of a 384-well plate
Time to read-out: three days of knock-down, then 20 h of DFO before reading
Treatment: desferrioxamine (DFO) at 100 µM, an iron chelator that mimics hypoxia, for 20 h
Measurement: 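Firefly luciferase driven by the mouse ldh-a hypoxia-response element, measured after 20 h of 100 µM DFO; z-scores per plate, higher means more signal lost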
Direction: z-score: higher = stronger loss of HIF reporter signal
The screen tested about 21,000 reagents; this is a random part of those that have a named target and a result. 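Primary screen; positive scores mean lost reporter signal, so the sign may be inverted from the usual convention.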 A plus sign joins genes that one reagent is predicted to hit.

target gene | dsRNA | z-score, replicate 1 | z-score, replicate 2 | z-score, replicate 3 | z-score, replicate 4
adp (GeneID 37073) | DRSC06916 | -0.3 | -0.4 | – | –
ppk26 (GeneID 38835) | DRSC10991 | -0.2 | 1.1 | – | –
CG5466 (GeneID 42444) | DRSC15808 | 3.7 | 1.1 | – | –
Ehbp1 (GeneID 36912) | DRSC06561 | -0.2 | -0.5 | – | –
Rsph9 (GeneID 318950) | DRSC01594 | -0.1 | -0.6 | – | –
Ilk (GeneID 53573) | DRSC11868 | 0.4 | -0.1 | – | –
Gld2 (GeneID 42602) | DRSC15863 | 2.6 | -0.6 | – | –
CG33792 (GeneID 3772111) | DRSC05355 | -0.2 | 0.1 | – | –
CG31937 (GeneID 326177) | DRSC00514 | -0.2 | -0.2 | – | –
CG32425 (GeneID 40273) | DRSC11739 | 1.4 | 1 | – | –
CG32425 (GeneID 40273) | DRSC11764 | -0.3 | -0.7 | – | –
Non3 (GeneID 42183) | DRSC16359 | -0.3 | 0.1 | – | –
CG7139 (GeneID 40448) | DRSC11611 | -0.2 | -0.4 | – | –
Cat (GeneID 40048) | DRSC11110 | -0.2 | -0.4 | – | –
Or92a (GeneID 42425) | DRSC16771 | 0.7 | -0.4 | – | –
CG9215 (GeneID 32494) | DRSC20171 | -0.2 | -1 | – | –
RpS2 (GeneID 34309) | DRSC03614 | 6.8 | 5.2 | – | –
PGRP-LD + Cralbp + Pmi | DRSC09743 | -0.3 | -0.6 | – | –
CG7071 + Muted | DRSC16189 | -0.4 | -0.4 | – | –
CG4949 (GeneID 32691) | DRSC19926 | -0.1 | -0.3 | – | –
CG14082 (GeneID 40088) | DRSC10086 | -0.3 | -0.4 | – | –
ZnT63C (GeneID 38407) | DRSC08032 | 0 | -0.2 | – | –
ZnT63C (GeneID 38407) | DRSC08033 | -0.3 | -0.4 | – | –
ZnT63C (GeneID 38407) | DRSC08519 | -0.3 | -0.3 | – | –
SamDC (GeneID 34396) | DRSC03429 | -0.4 | -0.3 | – | –
Krn (GeneID 326198) | DRSC11202 | 0.4 | 0.2 | – | –
CG12935 + Nop10 | DRSC07025 | -0.3 | 0.1 | – | –
Myd88 (GeneID 35956) | DRSC06815 | -0.3 | -0.2 | – | –
ASPP (GeneID 37422) | DRSC04305 | 2.5 | 2.7 | – | –
Fitm (GeneID 38596) | DRSC09772 | -0.3 | 0.6 | – | –
CG3568 (GeneID 31383) | DRSC18312 | -0.2 | -0.3 | – | –
CG8100 (GeneID 39565) | DRSC10961 | -0.3 | -0.4 | – | –
Spn88Ea (GeneID 49804) | DRSC17061 | 0 | 0.1 | – | –
Camta (GeneID 35974) | DRSC06440 | -0.3 | 0.3 | – | –
Camta (GeneID 35974) | DRSC06441 | -0.3 | -0.4 | 4.2 | 2.6
Camta (GeneID 35974) | DRSC07272 | -0.4 | -0.3 | – | –
CG33160 (GeneID 326265) | DRSC08197 | -0.5 | -0.4 | – | –
CG3776 (GeneID 37996) | DRSC04417 | -0.2 | 0.1 | – | –
Corin (GeneID 35691) | DRSC06818 | -0.4 | -0.5 | – | –
cal1 (GeneID 42065) | DRSC15725 | 0 | -0.2 | – | –
Ir68b (GeneID 39378) | DRSC10251 | -0.3 | -0.4 | – | –
CG15306 (GeneID 31961) | DRSC17993 | -0.1 | -0.5 | – | –
CG15306 (GeneID 31961) | DRSC18240 | -0.2 | 0.5 | -0.2 | -0.2
bs (GeneID 37890) | DRSC04676 | -0.3 | 0 | 4.4 | 3
CG14420 (GeneID 31284) | DRSC17917 | -0.3 | -0.3 | – | –
CG6843 (GeneID 40062) | DRSC10725 | -0.1 | 0.2 | – | –
noc (GeneID 34847) | DRSC03580 | -0.1 | 0 | – | –
GstE5 (GeneID 37110) | DRSC06675 | -0.3 | -0.5 | – | –
CG9581 (GeneID 33017) | DRSC20695 | -0.1 | -0.6 | -0.7 | -0.2
c-cup (GeneID 33360) | DRSC00458 | -0.1 | 0.8 | – | –
CG11475 (GeneID 37513) | DRSC04113 | -0.3 | -0.5 | – | –
ND4 (retired record) (GeneID 192476) | DRSC21269 | -0.3 | -0.5 | – | –
CG6044 (GeneID 37558) | DRSC04522 | -0.5 | -0.2 | – | –
Rbp4 (GeneID 41668) | DRSC16818 | -0.1 | -0.4 | – | –
ath (GeneID 34357) | DRSC02788 | -0.1 | 0 | – | –
Or59b (GeneID 37715) | DRSC04632 | -0.3 | -0.2 | – | –
ThrRS (GeneID 45784) | DRSC02843 | 0.1 | 0.1 | – | –
CR42548 (GeneID 8673959) | DRSC09514 | -0.5 | -0.2 | – | –
Reg-5 (GeneID 37968) | DRSC04647 | -0.2 | 0 | – | –
Hexim (GeneID 41778) | DRSC15490 | -0.2 | -0.4 | – | –
CG3108 (GeneID 31506) | DRSC18280 | -0.3 | -0.7 | – | –
Cyp309a2 (GeneID 33439) | DRSC00526 | 0 | 0 | – | –
CG13862 (GeneID 42610) | DRSC14712 | -0.1 | 0.3 | – | –
superdeath (GeneID 43444) | DRSC14868 | 0 | -0.2 | – | –
CG34266 (GeneID 5740465) | DRSC08323 | -0.5 | 0 | – | –
FucTC (GeneID 3355171) | DRSC20966 | 0.4 | -0.1 | – | –
CG32344 (GeneID 326208) | DRSC08578 | -0.3 | -0.3 | – | –
CG17715 (GeneID 3355129) | DRSC11950 | -0.3 | 0.2 | – | –
Mcm2 (GeneID 40973) | DRSC16734 | 0.1 | 0.2 | – | –
GstO2 (GeneID 38974) | DRSC10691 | -0.3 | 0.2 | – | –

Next part, starting with the last 13 of the part before.
target gene | dsRNA | z-score, replicate 1 | z-score, replicate 2 | z-score, replicate 3 | z-score, replicate 4
CR42548 (GeneID 8673959) | DRSC09514 | -0.5 | -0.2 | – | –
Reg-5 (GeneID 37968) | DRSC04647 | -0.2 | 0 | – | –
Hexim (GeneID 41778) | DRSC15490 | -0.2 | -0.4 | – | –
CG3108 (GeneID 31506) | DRSC18280 | -0.3 | -0.7 | – | –
Cyp309a2 (GeneID 33439) | DRSC00526 | 0 | 0 | – | –
CG13862 (GeneID 42610) | DRSC14712 | -0.1 | 0.3 | – | –
superdeath (GeneID 43444) | DRSC14868 | 0 | -0.2 | – | –
CG34266 (GeneID 5740465) | DRSC08323 | -0.5 | 0 | – | –
FucTC (GeneID 3355171) | DRSC20966 | 0.4 | -0.1 | – | –
CG32344 (GeneID 326208) | DRSC08578 | -0.3 | -0.3 | – | –
CG17715 (GeneID 3355129) | DRSC11950 | -0.3 | 0.2 | – | –
Mcm2 (GeneID 40973) | DRSC16734 | 0.1 | 0.2 | – | –
GstO2 (GeneID 38974) | DRSC10691 | -0.3 | 0.2 | – | –
CtIP (GeneID 40262) | DRSC11785 | -0.3 | -0.2 | – | –
Cortactin (GeneID 42491) | DRSC16612 | -0.2 | -0.3 | – | –
veg (retired record) (GeneID 44057) | DRSC07714 | -0.2 | -0.7 | – | –
stj (GeneID 36526) | DRSC06124 | -0.3 | -0.4 | – | –
PIG-C (GeneID 38410) | DRSC08241 | -0.1 | -0.4 | – | –
Tps1 (GeneID 33642) | DRSC00269 | -0.3 | -0.4 | – | –
spin (GeneID 45380) | DRSC07176 | -0.2 | 0.2 | -0.9 | -0.2
CG11911 (GeneID 33206) | DRSC00331 | -0.3 | -0.3 | – | –
Ipk2 (GeneID 33236) | DRSC00357 | -0.2 | -0.2 | – | –
CG14915 (GeneID 34536) | DRSC02399 | -0.2 | 0.3 | – | –
CG1492 (GeneID 32164) | DRSC19605 | -0.3 | 1.2 | – | –
CG1360 (GeneID 35695) | DRSC06406 | -0.4 | -0.5 | – | –
Uba2 (GeneID 44496) | DRSC11311 | -0.6 | -1 | – | –
Ccdc39 (GeneID 40595) | DRSC12286 | -0.3 | -0.2 | – | –
CG6707 (GeneID 39168) | DRSC10697 | -0.1 | -0.3 | – | –
Orc4 (GeneID 37970) | DRSC04634 | 0 | 0.6 | – | –
CG2750 (GeneID 32179) | DRSC19867 | 0.2 | -0.4 | 0.2 | -0.4
lwr (GeneID 33226) | DRSC00828 | -0.5 | -0.6 | – | –
CG31100 (GeneID 41075) | DRSC14453 | -0.3 | -1.1 | – | –
CG31100 (GeneID 41075) | DRSC14455 | -0.1 | -0.5 | – | –
msn (GeneID 44030) | DRSC07990 | -0.4 | -0.4 | – | –
msn (GeneID 44030) | DRSC08498 | -0.4 | -0.4 | – | –
CG13581 (GeneID 37911) | DRSC04216 | -0.2 | -0.3 | – | –
CG14607 (GeneID 40869) | DRSC12551 | 0.3 | 0.6 | – | –
CG15012 (GeneID 38529) | DRSC08465 | -0.4 | -1 | – | –
clumsy (GeneID 35394) | DRSC03111 | 0 | 0.2 | – | –
CG5327 (GeneID 37138) | DRSC06930 | -0.4 | -0.3 | – | –
CG12112 (GeneID 31794) | DRSC17809 | -0.4 | -0.4 | – | –
mRpS30 (GeneID 32530) | DRSC20107 | 0.9 | 0.8 | – | –
CG30375 (GeneID 246575) | DRSC06834 | -0.3 | -0.3 | – | –
CG15263 (GeneID 34898) | DRSC01974 | -0.2 | -0.6 | – | –
Vps29 (GeneID 33295) | DRSC00666 | -0.3 | -0.3 | – | –
CG10185 (GeneID 41953) | DRSC14205 | -0.4 | -0.5 | – | –
ImpE1 (GeneID 45879) | DRSC11195 | -0.2 | 0 | – | –
ImpE1 (GeneID 45879) | DRSC11196 | -0.2 | 0.1 | – | –
Ncoa6 (GeneID 33761) | DRSC02353 | 2.1 | 2.9 | – | –
